The list shows only some results of the screen, not a fair sample: it gathers tests that were run many times, whatever their T/C, doses with no T/C, and many T/C values between a quarter and a half above the control. Further doses and runs are listed elsewhere. T/C: endpoint of the treated group in % of that of the vehicle group. Some entries give survivors of the animals treated and no T/C: the source holds a T/C of zero for them, seemingly a mark for toxic or unscored doses. Some doses without a T/C left all or most animals alive at the check, yet need not have been tolerated: survival well below the control is almost never listed, so the zero probably covers shortened survival too. Survivors were counted at the toxicity check, usually on the fifth day, unless a day is given; later deaths do not show. Schedules are NCI's codes, read here as Q, the interval in days (D) or hours (H), X, the number of doses. Some entries were tested several times; the results are listed from low to high. For survival time, the PubChem record calls one and a half times the control and up active, and a quarter to a half above the control has no call in these data; cut-offs in other NCI protocols can differ.
Tested on: CD2F1 mice, L1210 leukemia ip, survival T/C
Assay: NCI In Vivo Anticancer Drug Screen. Data for tumor model L1210 Leukemia (intraperitoneal) in CD2F1 (CDF1) mice
Conditions: higher T/C = longer survival
How it was run: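 Transplantable tumor in mice; compound-treated vs vehicle-treated groups. Read-out = treated/control ratio of the measured endpoint.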

[1] = T/C endpoint: mean survival time, dose: 12.5 mg/kg/injection, schedule: Q01DX009 (ip), vehicle: saline with Tween-80
[2] = T/C endpoint: mean survival time, dose: 300.0 mg/kg/injection, schedule: Q01DX001 (ip), vehicle: saline
[3] = T/C endpoint: mean survival time, dose: 400.0 mg/kg/injection, schedule: Q04DX003 (ip), vehicle: saline with Tween-80
[4] = T/C endpoint: mean survival time, dose: 200.0 mg/kg/injection, schedule: Q04DX003 (ip), vehicle: saline with Tween-80
[5] = T/C endpoint: mean survival time, dose: 200.0 mg/kg/injection, schedule: Q01DX009 (ip), vehicle: saline with Tween-80
[6] = T/C endpoint: mean survival time, dose: 400.0 mg/kg/injection, schedule: Q04DX002 (ip), vehicle: saline

For `C=C[CH2][Sn]([CH2]C=C)([c]1ccccc1)[c]1ccccc1`, the survivor count [1] was 3 of 6, the survivor count (T/C endpoint: mean survival time, dose: 25.0 mg/kg/injection, schedule: Q01DX009 (ip), vehicle: saline with Tween-80) was 0 of 6 and the survivor count (T/C endpoint: median survival time, dose: 50.0 mg/kg/injection, schedule: Q04DX002 (ip), vehicle: saline with Tween-80) was 0 of 3. The survivor count (T/C endpoint: median survival time, dose: 100.0 mg/kg/injection, schedule: Q04DX002 (ip), vehicle: saline with Tween-80) was 0 of 3.

In the case of `CN(C)CCSc1cc(O)c2c(c1O)C(=O)c1ccccc1C2=O`, the survivor count (T/C endpoint: mean survival time, dose: 400.0 mg/kg/injection, schedule: Q01DX009 (ip), vehicle: water) is reported as 2 of 6.

For `O=C1C=C(N2CCOCC2)c2ccccc2C1=O`, the survivor count [2] was 0 of 6.

`CC1=CC(C)(C)Nc2ccc(CSc3ccccc3)cc21` was tested, and the survivor count (T/C endpoint: mean survival time, dose: 100.0 mg/kg/injection, schedule: Q01DX009 (ip), vehicle: DMSO) was 5 of 6, the survivor count (T/C endpoint: mean survival time, dose: 200.0 mg/kg/injection, schedule: Q01DX009 (ip), vehicle: DMSO) was 2 of 6 and the survivor count (T/C endpoint: mean survival time, dose: 200.0 mg/kg/injection, schedule: Q01DX009 (ip), vehicle: other) was 0 of 6. The survivor count (T/C endpoint: mean survival time, dose: 400.0 mg/kg/injection, schedule: Q01DX009 (ip), vehicle: DMSO) was 0 of 6 and the survivor count (T/C endpoint: mean survival time, dose: 400.0 mg/kg/injection, schedule: Q01DX009 (ip), vehicle: other) was 0 of 6.

For `CNc1c2c(nc3ccccc13)CCCC2`, the survivor count (T/C endpoint: mean survival time, dose: 10.0 mg/kg/injection, schedule: Q04DX003 (ip), vehicle: saline with Tween-80) was 6 of 6 and the survivor count (T/C endpoint: mean survival time, dose: 20.0 mg/kg/injection, schedule: Q04DX003 (ip), vehicle: saline with Tween-80) was 0 of 6.

`Nc1cccc(CCCCc2cccc(S(=O)(=O)F)c2)c1` was tested, and the survivor count [3] was 2 of 6.

In the case of `S=C=Nc1cccc(Cl)c1`, the survivor count (T/C endpoint: mean survival time, dose: 150.0 mg/kg/injection, schedule: Q01DX009 (ip), vehicle: saline with Tween-80) is reported as 4 of 6 and the survivor count (T/C endpoint: mean survival time, dose: 300.0 mg/kg/injection, schedule: Q01DX009 (ip), vehicle: saline with Tween-80) is reported as 1 of 6.

With `N#CC1C(=O)NC(O)(c2ccccc2)C1c1ccccc1` (centres undefined) the survivor count [4] was 3 of 3 and the survivor count [3] was 1 of 3.

In the case of `CC1=Nc2ccccc2N=C(C)C1`, the survivor count (T/C endpoint: mean survival time, dose: 200.0 mg/kg/injection, schedule: Q01DX009 (ip), vehicle: acetone) is reported as 2 of 6.

With `CCCC(O)C[N+](=O)[O-]` (centres undefined) the survivor count (T/C endpoint: mean survival time, dose: 400.0 mg/kg/injection, schedule: Q01DX009 (ip), vehicle: saline) was 1 of 6.

For `CCCOS(=O)(=O)c1ccc(Cl)c([N+](=O)[O-])c1`, the survivor count [5] was 0 of 6 and the survivor count [3] was 3 of 6.

With `O=NNc1ccc(Cl)cn1` the T/C (T/C endpoint: median survival time, dose: 6.25 mg/kg/injection, schedule: Q01DX009 (ip), vehicle: water) was 127 % of control, the T/C (T/C endpoint: median survival time, dose: 12.0 mg/kg/injection, schedule: Q01DX009 (ip), vehicle: water) was 142 % of control and the survivor count (T/C endpoint: median survival time, dose: 25.0 mg/kg/injection, schedule: Q01DX009 (ip), vehicle: water) was 1 of 6.

With `CC(=O)Oc1ccc(C(=O)O)cc1` the survivor count (T/C endpoint: mean survival time, dose: 200.0 mg/kg/injection, schedule: Q01DX009 (ip), vehicle: Klucel (hydroxypropylcellulose) (HPC)) was 0 of 3.

`O=C1OC(=O)C2C3C=CC(O3)C12` (centres undefined) was tested, and the survivor count (T/C endpoint: mean survival time, dose: 40.0 mg/kg/injection, schedule: Q01DX009 (ip), vehicle: saline with Tween-80) was 0 of 6, the survivor count (T/C endpoint: mean survival time, dose: 200.0 mg/kg/injection, schedule: Q04DX002 (ip), vehicle: saline) was 0 of 3 and the survivor count [6] was 0 of 3.

For `COc1c2c(cc3c1C(O)N(C)CC3)OCO2` (centres undefined), the survivor count [2] was 1 of 6.

In the case of `O=C(O)c1cccnc1-c1ccccc1.[Cu+2]`, the survivor count (T/C endpoint: mean survival time, dose: 75.0 mg/kg/injection, schedule: Q01DX001 (ip), vehicle: other) is reported as 0 of 6, the survivor count (T/C endpoint: mean survival time, dose: 150.0 mg/kg/injection, schedule: Q01DX001 (ip), vehicle: other) is reported as 0 of 6 and the survivor count (T/C endpoint: mean survival time, dose: 300.0 mg/kg/injection, schedule: Q01DX001 (ip), vehicle: other) is reported as 0 of 6.

In the case of `CC(=O)Nc1cccc(N=Cc2ccc(N(CCOS(C)(=O)=O)CCOS(C)(=O)=O)cc2C)c1`, the T/C (T/C endpoint: mean survival time, dose: 12.0 mg/kg/injection, schedule: Q01DX009 (ip), vehicle: saline with Tween-80) is reported as 138 % of control, the T/C [1] is reported as 143 % of control and the T/C (T/C endpoint: mean survival time, dose: 18.0 mg/kg/injection, schedule: Q01DX009 (ip), vehicle: saline with Tween-80) is reported as 147 % of control.

In the case of `CCN(CC)CCNC(=O)C(O)(c1ccccc1)c1ccccc1`, the survivor count (T/C endpoint: mean survival time, dose: 200.0 mg/kg/injection, schedule: Q01DX009 (ip), vehicle: saline) is reported as 1 of 3.

In the case of `O=C1NNC(=O)C2C3CCC(C3)C12` (centres undefined), the survivor count (T/C endpoint: mean survival time, dose: 400.0 mg/kg/injection, schedule: Q04DX003 (ip), vehicle: saline sonified) is reported as 0 of 6.

For `COc1ccc(Cc2c[n+](C)cc3cc(N=O)c(OC)cc23)cc1O`, the survivor count (T/C endpoint: mean survival time, dose: 400.0 mg/kg/injection, schedule: Q01DX001 (ip), vehicle: saline) was 1 of 6.

In the case of `Nc1ncnc2c(C3OC(CO)C(O)C3O)[nH]nc12` (centres undefined), the survivor count (T/C endpoint: mean survival time, dose: 50.0 mg/kg/injection, schedule: Q01DX009 (ip), vehicle: saline with Tween-80) is reported as 3 of 6, the survivor count (T/C endpoint: mean survival time, dose: 100.0 mg/kg/injection, schedule: Q01DX009 (ip), vehicle: saline with Tween-80) is reported as 0 of 6 and the survivor count [5] is reported as 0 of 6. For the same molecule, the survivor count [3] was 3 of 6.

With `CC1(C)N=C(N)N=C(N)N1c1ccc(CCC(=O)Nc2ccc(S(=O)(=O)F)cc2)c(Cl)c1` the T/C (T/C endpoint: mean survival time, dose: 25.0 mg/kg/injection, schedule: Q01DX009 (ip), vehicle: saline) was 129 % of control, the T/C (T/C endpoint: mean survival time, dose: 50.0 mg/kg/injection, schedule: Q01DX009 (ip), vehicle: water) was 125 % of control and the survivor count (T/C endpoint: mean survival time, dose: 100.0 mg/kg/injection, schedule: Q01DX009 (ip), vehicle: water) was 0 of 6.

For `CN(C)CCOc1ccc2c(c1)C/C(=C/c1ncc([N+](=O)[O-])n1C)C2=O`, the survivor count [5] was 6 of 6.

In the case of `Nc1nc2nc[n-]c2c(=O)[nH]1.[NH2-].[NH2-].[NH2-].[NH2-].[NH2-].[Ru+6]`, the survivor count (T/C endpoint: mean survival time, dose: 50.0 mg/kg/injection, schedule: Q04DX003 (ip), vehicle: water) is reported as 6 of 6 and the survivor count (T/C endpoint: mean survival time, dose: 100.0 mg/kg/injection, schedule: Q04DX003 (ip), vehicle: water) is reported as 4 of 6.

In the case of `Nc1nc(=O)[nH]c(N)c1N`, the survivor count [6] is reported as 1 of 3.

In the case of `CC(CCc1ccccc1)NC(C)C(O)c1ccc(O)cc1` (centres undefined), the survivor count [4] is reported as 4 of 6 and the survivor count [3] is reported as 1 of 6.

For `COc1cc(OC)c(/C=C/c2ccc3ccccc3[n+]2C)c(OC)c1`, the survivor count (T/C endpoint: mean survival time, dose: 100.0 mg/kg/injection, schedule: Q04DX003 (ip), vehicle: saline with Tween-80) was 0 of 6, the survivor count [4] was 0 of 6 and the survivor count [3] was 0 of 6.

For `CSCS(=O)C[C@H](CO)NC(=O)/C=C/c1c(C)[nH]c(=O)[nH]c1=O` (some centres undefined), the T/C (T/C endpoint: mean survival time, dose: 0.3 mg/kg/injection, schedule: Q01DX009 (ip), vehicle: water) was 132 % of control, the survivor count (T/C endpoint: mean survival time, dose: 0.6 mg/kg/injection, schedule: Q01DX009 (ip), vehicle: water) was 6 of 6 and the survivor count (T/C endpoint: mean survival time, dose: 1.0 mg/kg/injection, schedule: Q01DX009 (ip), vehicle: saline) was 6 of 6. For the same molecule, the survivor count (T/C endpoint: mean survival time, dose: 1.2 mg/kg/injection, schedule: Q01DX009 (ip), vehicle: water) was 2 of 6 and 5 of 6.

Source: PubChem BioAssay AID256 (DTP/NCI, 2004)
